These are yes or no findings as the source states them, for the method shown. In cells and extracts the contact can be indirect. Some binding calls cover weakened binding; strength is not graded here.
B1: Med16 (protein, UniProt Q9Y2X0 1-877)
chain: MCDLRRPAAGGMMDLAYVCEWEKWSKSTHCPSVPLACAWSCRNLIAFTMDLRSDDQDLTRMIHILDTEHPWDLHSIPSEHHEAITCLEWDQSGSRLLSADADGQIKCWSMADHLANSWESSVGSLVEGDPIVALSWLHNGVKLALHVEKSGASSFGEKFSRVKFSPSLTLFGGKPMEGWIAVTVSGLVTVSLLKPSGQVLTSTESLCRLRGRVALADIAFTGGGNIVVATADGSSASPVQFYKVCVSVVSEKCRIDTEILPSLFMRCTTDLNRKDKFPAITHLKFLARDMSEQVLLCASSQTSSIVECWSLRKEGLPVNNIFQQISPVVGDKQPTILKWRILSATNDLDRVSAVALPKLPISLTNTDLKVASDTQFYPGLGLALAFHDGSVHIVHRLSLQTMAVFYSSAAPRPVDEPAMKRPRTAGPAVHLKAMQLSWTSLALVGIDSHGKLSVLRLSPSMGHPLEVGLALRHLLFLLEYCMVTGYDWWDILLHVQPSMVQSLVEKLHEEYTRQTAALQQVLSTRILAMKASLCKLSPCTVTRVCDYHTKLFLIAISSTLKSLLRPHFLNTPDKSPGDRLTEICTKITDVDIDKVMINLKTEEFVLDMNTLQALQQLLQWVGDFVLYLLASLPNQGSLLRPGHSFLRDGTSLGMLRELMVVIRIWGLLKPSCLPVYTATSDTQDSMSLLFRLLTKLWICCRDEGPASEPDEALVDECCLLPSQLLIPSLDWLPASDGLVSRLQPKQPLRLQFGRAPTLPGSAATLQLDGLARAPGQPKIDHLRRLHLGACPTEECKACTRCGCVTMLKSPNRTTAVKQWEQRWIKNCLAVEGRGPDACVTSRASEEAPAFVQLGPQSTHHSPRTPRSLDHLHPEDRP
B2: Med18 (protein, UniProt Q9BUE0 1-208)
chain: MEAPPVTMMPVTGGTINMMEYLLQGSVLDHSLESLIHRLRGLCDNMEPETFLDHEMVFLLKGQQASPFVLRARRSMDRAGAPWHLRYLGQPEMGDKNRHALVRNCVDIATSENLTDFLMEMGFRMDHEFVAKGHLFRKGIMKIMVYKIFRILVPGNTDSTEALSLSYLVELSVVAPAGQDMVSDDMKNFAEQLKPLVHLEKIDPKRLM
B3: Med24 (protein, UniProt O75448 1-989)
chain: MKVVNLKQAILQAWKERWSDYQWAINMKKFFPKGATWDILNLADALLEQAMIGPSPNPLILSYLKYAISSQMVSYSSVLTAISKFDDFSRDLCVQALLDIMDMFCDRLSCHGKAEECIGLCRALLSALHWLLRCTAASAERLREGLEAGTPAAGEKQLAMCLQRLEKTLSSTKNRALLHIAKLEEASSWTAIEHSLLKLGEILANLSNPQLRSQAEQCGTLIRSIPTMLSVHAEQMHKTGFPTVHAVILLEGTMNLTGETQSLVEQLTMVKRMQHIPTPLFVLEIWKACFVGLIESPEGTEELKWTAFTFLKIPQVLVKLKKYSHGDKDFTEDVNCAFEFLLKLTPLLDKADQRCNCDCTNFLLQECGKQGLLSEASVNNLMAKRKADREHAPQQKSGENANIQPNIQLILRAEPTVTNILKTMDADHSKSPEGLLGVLGHMLSGKSLDLLLAAAAATGKLKSFARKFINLNEFTTYGSEESTKPASVRALLFDISFLMLCHVAQTYGSEVILSESRTGAEVPFFETWMQTCMPEEGKILNPDHPCFRPDSTKVESLVALLNNSSEMKLVQMKWHEACLSISAAILEILNAWENGVLAFESIQKITDNIKGKVCSLAVCAVAWLVAHVRMLGLDEREKSLQMIRQLAGPLFSENTLQFYNERVVIMNSILERMCADVLQQTATQIKFPSTGVDTMPYWNLLPPKRPIKEVLTDIFAKVLEKGWVDSRSIHIFDTLLHMGGVYWFCNNLIKELLKETRKEHTLRAVELLYSIFCLDMQQVTLVLLGHILPGLLTDSSKWHSLMDPPGTALAKLAVWCALSSYSSHKGQASTRQKKRHREDIEDYISLFPLDDVQPSKLMRLLSSNEDDANILSSPTDRSMSSSLSASQLHTVNMRDPLNRVLANLFLLISSILGSRTAGPHTQFVQWFMEECVDCLEQGGRGSVLQFMPFTTVSELVKVSAMSSPKVVLAITDLSLPLGRQVAAKAIAAL
B4: Med7 (protein, UniProt O43513 1-233)
chain: MGEPQQVSALPPPPMQYIKEYTDENIQEGLAPKPPPPIKDSYMMFGNQFQCDDLIIRPLESQGIERLHPMQFDHKKELRKLNMSILINFLDLLDILIRSPGSIKREEKLEDLKLLFVHVHHLINEYRPHQARETLRVMMEVQKRQRLETAERFQKHLERVIEMIQNCLASLPDDLPHSEAGMRVKTEPMDADDSNNCTGQNEHQRENSGHRRDQIIEKDAALCVLIDEMNERP

By UniProt entry, the sequences of proteins in these tests, tags left out.
UniProt P49336: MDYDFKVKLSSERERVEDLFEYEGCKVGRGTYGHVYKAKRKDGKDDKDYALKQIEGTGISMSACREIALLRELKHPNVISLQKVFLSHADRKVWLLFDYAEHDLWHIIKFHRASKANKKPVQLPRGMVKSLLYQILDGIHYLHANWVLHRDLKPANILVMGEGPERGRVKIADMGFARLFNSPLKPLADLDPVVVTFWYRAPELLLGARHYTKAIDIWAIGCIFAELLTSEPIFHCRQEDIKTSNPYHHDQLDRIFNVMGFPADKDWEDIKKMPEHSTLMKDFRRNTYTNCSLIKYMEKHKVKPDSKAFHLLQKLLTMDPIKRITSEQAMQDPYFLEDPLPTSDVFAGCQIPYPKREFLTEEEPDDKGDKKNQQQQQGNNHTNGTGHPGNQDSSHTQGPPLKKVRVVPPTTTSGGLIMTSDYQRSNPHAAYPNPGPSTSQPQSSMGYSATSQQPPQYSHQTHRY
UniProt Q15648: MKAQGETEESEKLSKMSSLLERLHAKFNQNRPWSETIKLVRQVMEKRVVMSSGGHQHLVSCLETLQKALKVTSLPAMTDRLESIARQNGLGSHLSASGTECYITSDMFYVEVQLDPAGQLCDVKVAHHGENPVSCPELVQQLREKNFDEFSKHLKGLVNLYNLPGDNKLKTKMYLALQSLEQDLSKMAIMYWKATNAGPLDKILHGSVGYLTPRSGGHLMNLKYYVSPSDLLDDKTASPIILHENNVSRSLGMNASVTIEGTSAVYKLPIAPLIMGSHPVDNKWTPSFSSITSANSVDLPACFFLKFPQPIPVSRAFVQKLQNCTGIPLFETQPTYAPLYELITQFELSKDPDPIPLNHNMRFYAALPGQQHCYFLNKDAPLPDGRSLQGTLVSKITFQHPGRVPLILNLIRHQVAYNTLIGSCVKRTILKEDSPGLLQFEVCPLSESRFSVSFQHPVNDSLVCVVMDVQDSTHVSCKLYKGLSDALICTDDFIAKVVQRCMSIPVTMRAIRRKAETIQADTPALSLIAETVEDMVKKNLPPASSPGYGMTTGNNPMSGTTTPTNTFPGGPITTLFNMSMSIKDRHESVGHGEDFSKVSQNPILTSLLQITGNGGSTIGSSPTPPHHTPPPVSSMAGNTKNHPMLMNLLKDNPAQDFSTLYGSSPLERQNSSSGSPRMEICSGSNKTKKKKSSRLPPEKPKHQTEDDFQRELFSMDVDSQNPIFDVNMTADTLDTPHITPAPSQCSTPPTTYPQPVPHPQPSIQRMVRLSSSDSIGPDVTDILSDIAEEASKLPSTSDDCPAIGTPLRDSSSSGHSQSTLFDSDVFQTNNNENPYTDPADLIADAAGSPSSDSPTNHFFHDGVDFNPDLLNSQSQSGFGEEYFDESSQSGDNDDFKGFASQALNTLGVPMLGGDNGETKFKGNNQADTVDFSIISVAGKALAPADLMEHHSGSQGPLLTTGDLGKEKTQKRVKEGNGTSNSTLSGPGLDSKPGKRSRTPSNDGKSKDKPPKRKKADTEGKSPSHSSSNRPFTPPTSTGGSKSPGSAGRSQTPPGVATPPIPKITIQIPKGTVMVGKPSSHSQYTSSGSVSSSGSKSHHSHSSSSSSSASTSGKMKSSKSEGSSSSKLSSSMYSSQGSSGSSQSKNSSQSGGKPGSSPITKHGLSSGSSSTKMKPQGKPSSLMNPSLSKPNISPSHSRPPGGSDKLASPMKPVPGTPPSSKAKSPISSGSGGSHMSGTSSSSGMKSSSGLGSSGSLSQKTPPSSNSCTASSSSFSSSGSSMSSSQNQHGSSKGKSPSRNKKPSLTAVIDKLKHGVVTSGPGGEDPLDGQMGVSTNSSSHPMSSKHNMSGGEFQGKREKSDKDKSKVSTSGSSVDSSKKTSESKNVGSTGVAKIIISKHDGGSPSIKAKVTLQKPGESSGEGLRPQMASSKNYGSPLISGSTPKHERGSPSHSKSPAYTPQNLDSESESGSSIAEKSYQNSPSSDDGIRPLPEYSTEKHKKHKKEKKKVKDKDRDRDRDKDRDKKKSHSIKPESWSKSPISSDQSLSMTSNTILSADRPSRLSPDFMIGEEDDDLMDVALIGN
UniProt O60244: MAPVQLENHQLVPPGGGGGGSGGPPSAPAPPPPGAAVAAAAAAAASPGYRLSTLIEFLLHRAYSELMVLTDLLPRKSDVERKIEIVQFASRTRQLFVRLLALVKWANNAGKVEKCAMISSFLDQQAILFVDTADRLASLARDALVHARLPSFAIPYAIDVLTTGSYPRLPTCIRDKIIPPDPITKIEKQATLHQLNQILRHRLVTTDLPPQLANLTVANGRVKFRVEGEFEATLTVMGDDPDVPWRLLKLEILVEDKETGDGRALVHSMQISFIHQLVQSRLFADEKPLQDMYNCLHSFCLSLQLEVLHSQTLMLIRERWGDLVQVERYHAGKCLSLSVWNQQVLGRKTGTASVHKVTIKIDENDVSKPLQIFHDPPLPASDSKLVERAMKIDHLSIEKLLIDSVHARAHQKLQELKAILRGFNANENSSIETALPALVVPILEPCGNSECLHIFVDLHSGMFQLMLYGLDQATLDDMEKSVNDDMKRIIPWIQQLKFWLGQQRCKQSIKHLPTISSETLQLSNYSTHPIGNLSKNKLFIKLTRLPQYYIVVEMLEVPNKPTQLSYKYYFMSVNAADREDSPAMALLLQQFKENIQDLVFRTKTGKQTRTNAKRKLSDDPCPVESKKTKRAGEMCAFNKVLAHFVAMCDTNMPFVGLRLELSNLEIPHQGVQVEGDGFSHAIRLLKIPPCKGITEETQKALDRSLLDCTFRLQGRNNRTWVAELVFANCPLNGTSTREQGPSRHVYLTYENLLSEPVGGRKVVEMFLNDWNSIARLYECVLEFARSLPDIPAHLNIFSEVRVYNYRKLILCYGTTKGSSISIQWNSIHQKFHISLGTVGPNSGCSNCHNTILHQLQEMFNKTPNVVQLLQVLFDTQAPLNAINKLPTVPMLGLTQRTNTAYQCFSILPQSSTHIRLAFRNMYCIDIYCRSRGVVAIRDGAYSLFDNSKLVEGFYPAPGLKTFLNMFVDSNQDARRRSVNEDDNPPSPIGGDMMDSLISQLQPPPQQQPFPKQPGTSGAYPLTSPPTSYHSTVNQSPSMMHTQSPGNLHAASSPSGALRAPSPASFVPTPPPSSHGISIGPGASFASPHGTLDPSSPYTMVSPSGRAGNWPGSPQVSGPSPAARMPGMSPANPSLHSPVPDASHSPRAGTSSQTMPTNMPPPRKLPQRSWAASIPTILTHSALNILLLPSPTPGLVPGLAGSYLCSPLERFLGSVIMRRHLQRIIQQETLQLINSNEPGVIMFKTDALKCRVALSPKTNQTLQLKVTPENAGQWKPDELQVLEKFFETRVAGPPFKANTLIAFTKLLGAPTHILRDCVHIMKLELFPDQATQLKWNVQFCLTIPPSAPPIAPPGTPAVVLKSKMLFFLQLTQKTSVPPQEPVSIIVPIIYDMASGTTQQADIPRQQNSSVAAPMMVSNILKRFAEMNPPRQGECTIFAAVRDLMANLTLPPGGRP

molecular target: T1, MED23, endogenous, incorporated within the Mediator complex (human (endogenous in HEK-293)) (UniProt Q9ULK4); test: co-IP; endogenous Mediator subunits found with MED23 in the Nb106 immuno-complexes from HEK-293 lysate; CaptureSelect C-tag Affinity Matrix; western blot
T1 sequence: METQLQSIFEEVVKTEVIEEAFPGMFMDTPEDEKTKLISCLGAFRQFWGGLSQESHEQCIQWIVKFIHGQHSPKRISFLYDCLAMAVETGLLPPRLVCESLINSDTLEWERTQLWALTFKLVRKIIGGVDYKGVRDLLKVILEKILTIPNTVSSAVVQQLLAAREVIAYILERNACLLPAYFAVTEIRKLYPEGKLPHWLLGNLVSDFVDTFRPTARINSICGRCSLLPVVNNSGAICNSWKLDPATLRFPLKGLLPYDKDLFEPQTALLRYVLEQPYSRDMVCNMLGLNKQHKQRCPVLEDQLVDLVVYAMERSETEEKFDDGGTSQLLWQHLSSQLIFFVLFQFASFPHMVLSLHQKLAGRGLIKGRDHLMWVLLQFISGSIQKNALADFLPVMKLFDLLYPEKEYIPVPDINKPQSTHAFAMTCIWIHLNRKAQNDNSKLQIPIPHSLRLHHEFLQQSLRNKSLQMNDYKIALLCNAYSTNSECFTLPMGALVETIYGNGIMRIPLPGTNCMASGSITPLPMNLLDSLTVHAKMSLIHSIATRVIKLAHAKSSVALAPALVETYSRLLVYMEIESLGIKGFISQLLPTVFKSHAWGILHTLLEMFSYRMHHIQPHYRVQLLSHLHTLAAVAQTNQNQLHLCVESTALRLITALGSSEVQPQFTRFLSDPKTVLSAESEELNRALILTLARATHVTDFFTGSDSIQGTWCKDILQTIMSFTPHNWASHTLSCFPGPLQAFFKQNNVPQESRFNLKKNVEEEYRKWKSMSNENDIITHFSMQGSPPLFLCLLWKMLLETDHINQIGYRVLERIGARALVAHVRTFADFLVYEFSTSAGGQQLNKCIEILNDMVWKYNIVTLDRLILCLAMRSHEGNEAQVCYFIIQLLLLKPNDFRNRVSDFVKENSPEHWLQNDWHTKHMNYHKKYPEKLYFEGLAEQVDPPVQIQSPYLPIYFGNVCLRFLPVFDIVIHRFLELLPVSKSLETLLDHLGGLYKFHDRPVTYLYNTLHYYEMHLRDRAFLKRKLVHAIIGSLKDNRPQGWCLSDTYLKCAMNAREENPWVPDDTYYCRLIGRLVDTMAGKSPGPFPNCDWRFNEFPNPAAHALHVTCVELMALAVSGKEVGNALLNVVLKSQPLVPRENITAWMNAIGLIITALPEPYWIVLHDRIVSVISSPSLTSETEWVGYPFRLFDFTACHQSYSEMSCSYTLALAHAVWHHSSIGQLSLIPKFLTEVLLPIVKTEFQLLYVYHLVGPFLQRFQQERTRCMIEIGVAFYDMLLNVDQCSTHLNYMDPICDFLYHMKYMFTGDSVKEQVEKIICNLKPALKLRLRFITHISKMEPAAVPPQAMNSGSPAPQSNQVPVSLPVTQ

binding, binds:
Cdk8 (from UniProt P49336 1-464), Med1 (from UniProt Q15648 1-1581), Med14 (from UniProt O60244 1-1454), B1, B2, B3, B4
